We go through four substances from patent EP0728012B1 (Lovas, Sandor, priority 1994, dated 1996).

A short description of the data set: general procedure: Boc solid-phase peptide synthesis; benzhydrylamine (BHA) resin, 0.65 milliequivalent/g; DIC/HOBt; BOP reagent for bulky amino acids; symmetric anhydride for recoupling. Conditions: whole synthesis.
[1] abbreviates: scale of the general procedure 0.5 mmol of BHA resin.

HELM strings list residues between dots; [ac] is acetyl, [am] amide, other brackets name non-standard units.

With “PEPTIDE1{[Glp].H.W.S.K.[xdW].L.R.P.G.[am]}$$$$V2.0”, the isolated mass (scale 0.5 mmol) is listed as 52 mg.

Turning to “PEPTIDE1{[Glp].H.W.S.[KFmoc].D.W.K.P.G.[am]}$$$$V2.0”, the “crude purity (method not given)” value under setting [1] worked out at 85%.

As for Lys^5[Lys(εFmoc)]^8-GnRH-III, the “crude purity (method not given)” value under setting [1] is recorded as “about 80%”.

As to Lys^4[Lys(ε-Fmoc)]^8-GnRH-III, where the note is “scale 1 mmol”, the crude mass was 1.04 g and the “crude purity (method not given)” value turned out to be 80%.
